These results are taken from the supplement of paper PMC7877785.

The data set in a line: self-splicing fitness, log relative to wild type (ln ratio); higher = more splicing; Tetrahymena group I intron in knt gene, E. coli kanamycin selection, DiMSum; sequences stand for … in CUCUCU…GGAGGGAAAAGUUAUCAGGCAUGCACCUGGUAGCUAGUCUUUAAACCAAUAGAUUGCAUCGGUUUAAAAGGCAAGACCGUCAAAUUGCGGGAAAGGGGUCAACAGCCGUUCAGUACCAAGUCUCAGGGGAAACUUUGAGAUGGCCUUGCAAAGGGUAUGGUAAUAAGCUGACGGACAUGGUCCUAACCACGCAGCCAAGUCCUAAGUCAACAGAUCUUCUGUUGAUAUGGAUGCAGUUCACAGACUAAAUGUCGGUCGGGGAAGAUGUAUUCUUCUCAUAAGAUAUAGUCGGACCUCUCCUUAAUGGGAGCUAGCGGAUGAAGUGAUGCAACACUGGAGCCGCUGGGAACUAAUUUGUAUGCGAAAGUAUAUUGAUUAGUUUUGGAGUACUCGUGGUCG
The gist of the method: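 Colonies from six replicate transformations of E. coli BL21(DE3) were pooled and amplicon-sequenced on an Illumina HiSeq 2500. The library placed an intron with all eight P1ex-region nucleotides randomised inside the knt kanamycin-resistance gene on pET-22b(+), and cells grew overnight at 37°C or 30°C on LB agar with or without 25 μg/mL kanamycin (plus 100 μg/mL carbenicillin, 50 μM IPTG, 0.2% rhamnose). Fitness is the DiMSum error-weighted combination of wild-type-normalised replicate fold changes, kanamycin versus none.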

± gives the uncertainty stated by the source. Many of these values have a large error.

Regarding AGCCAGCAAUAUUACGCGUA, the “self-splicing fitness (ln)” value reads like this: (30 °C) -1.99 ± 0.13; (37 °C) -1.44 ± 0.14. Taken in the same sequence, the figures for AACCAGCAAUAUUACGCGUA were -0.386 ± 0.063 and -0.313 ± 0.073. Taken in the same sequence, the figures for UUACAGCAAUAUUACGAAAC were -2.85 ± 0.33 and -2.49 ± 0.41.

For ACUUAGCAAUAUUACGUCCU, the “self-splicing fitness (ln)” value reads like this: (30 °C) -0.527 ± 0.085; (37 °C) -0.132 ± 0.13.

For the sequence GGUCAGCAAUAUUACGCGUC, the “self-splicing fitness (ln)” value reads like this: (30 °C) -1.46 ± 0.17; (37 °C) 0.149 ± 0.19. As to CAGUAGCAAUAUUACGGAAC, where the note is “30 °C”, the “self-splicing fitness (ln)” value was -3.72 ± 1. On the same count and under the same terms, the same measure for GGUAAGCAAUAUUACGCUCC: -3.63 ± 0.73; for CGGCAGCAAUAUUACGGGAC: -3.27 ± 0.5.

Regarding AGCAAGCAAUAUUACGGCUC, the “self-splicing fitness (ln)” value (30 °C) is -4.6 ± 0.27 and the “self-splicing fitness (ln)” value (37 °C) is -3.41 ± 0.4.

As for ACAGAGCAAUAUUACGCCUC, the “self-splicing fitness (ln)” value (37 °C) is -0.505 ± 0.68.

On to UUGGAGCAAUAUUACGCCAA, for which the “self-splicing fitness (ln)” value (37 °C) is -2.81 ± 0.75. On to CCCGAGCAAUAUUACGUGGC, for which the “self-splicing fitness (ln)” value (30 °C) is -4.2 ± 0.51. For the sequence AGAGAGCAAUAUUACGGGCA, the “self-splicing fitness (ln)” value (37 °C) was -2.86 ± 0.75. For the sequence GUGGAGCAAUAUUACGAACC, the “self-splicing fitness (ln)” value was -4.17 ± 1.1 (30 °C) and -0.00289 ± 0.53 (37 °C). For the sequence UAAGAGCAAUAUUACGUCCU, the “self-splicing fitness (ln)” value (30 °C) was -3.45 ± 0.8. Consider AGGGAGCAAUAUUACGUCCG, for which the “self-splicing fitness (ln)” value by setting is: (30 °C) -2.7 ± 0.78; (37 °C) -0.818 ± 0.68. In the case of UCCCAGCAAUAUUACGGCUG, the “self-splicing fitness (ln)” value (30 °C) is -3.88 ± 1.1. As to GUUAAGCAAUAUUACGCGGC, the “self-splicing fitness (ln)” value (37 °C) was -1.39 ± 1.2. In the case of GUGCAGCAAUAUUACGAUAC, the “self-splicing fitness (ln)” value was -1.58 ± 0.2 (30 °C) and -0.0479 ± 0.17 (37 °C). Taken in the same sequence, the figures for GAGGAGCAAUAUUACGGGGC were -0.135 ± 1.2 and -1.79 ± 1.2. Regarding UUGCAGCAAUAUUACGCUGG, the “self-splicing fitness (ln)” value (37 °C) is -2.94 ± 0.53. Same read-out and setting: the value for CCACAGCAAUAUUACGAUCC was -2.93 ± 0.61. Take GAGGAGCAAUAUUACGCGAU: the “self-splicing fitness (ln)” value was -2.83 ± 0.56 (30 °C) and -1.71 ± 0.62 (37 °C). The corresponding values for GGGGAGCAAUAUUACGAAGA are -2.42 ± 1.2 and -1.14 ± 0.81. For the sequence UUGCAGCAAUAUUACGUCCC, under “30 °C”, the “self-splicing fitness (ln)” value is -4.37 ± 0.72. For UUGCAGCAAUAUUACGCGGU, under “37 °C”, the “self-splicing fitness (ln)” value is -3.24 ± 0.52. For the sequence CGGGAGCAAUAUUACGCCGC, the “self-splicing fitness (ln)” value (37 °C) is -2.05 ± 0.66. Still for that read-out and setting: the same measure for CUUAAGCAAUAUUACGGCCC: -2.18 ± 1.1. Regarding AGCGAGCAAUAUUACGGAUU, under “30 °C”, the “self-splicing fitness (ln)” value is -3.13 ± 0.61.

For CCGUAGCAAUAUUACGCUGG, the “self-splicing fitness (ln)” value was -4.58 ± 0.72 (30 °C) and -2.52 ± 0.55 (37 °C). For CCGGAGCAAUAUUACGCUCC, the “self-splicing fitness (ln)” value (37 °C) is -1.69 ± 1.2. Turning to UCGCAGCAAUAUUACGCUAU, the “self-splicing fitness (ln)” value runs as follows: (30 °C) -5.08 ± 0.36; (37 °C) -3 ± 0.17. CGCUAGCAAUAUUACGCGAA: where the note is “30 °C”, the “self-splicing fitness (ln)” value is -4.16 ± 1.

Regarding CUGCAGCAAUAUUACGUUAG, the “self-splicing fitness (ln)” value runs as follows: (30 °C) -2.97 ± 0.1; (37 °C) -1.19 ± 0.1. The corresponding values for CCUAAGCAAUAUUACGAGCC are -3.76 ± 0.73 and -2.9 ± 1.1. With GUAUAGCAAUAUUACGUAGA, under “30 °C”, the “self-splicing fitness (ln)” value was -3.2 ± 0.76. For UAUAAGCAAUAUUACGUUGC, where the note is “37 °C”, the “self-splicing fitness (ln)” value was -2.95 ± 0.53.

As to CUAGAGCAAUAUUACGAGUC, under “37 °C”, the “self-splicing fitness (ln)” value was -3 ± 1.1. Take AGAGAGCAAUAUUACGCGGC: the “self-splicing fitness (ln)” value (37 °C) was -2.65 ± 0.62. As for CAGGAGCAAUAUUACGACUG, the “self-splicing fitness (ln)” value (30 °C) was -4.84 ± 0.51. As to AUGGAGCAAUAUUACGGGCA, the “self-splicing fitness (ln)” value (37 °C) is -2.19 ± 0.65. For the sequence GAGGAGCAAUAUUACGAGGG, the “self-splicing fitness (ln)” value (30 °C) was -2.68 ± 0.52.

As for UUCUAGCAAUAUUACGGCAC, the “self-splicing fitness (ln)” value (30 °C) is -1.32 ± 1.4.

As for CAUGAGCAAUAUUACGCAGU, the “self-splicing fitness (ln)” value is -4.2 ± 0.39 (30 °C) and -2.63 ± 0.23 (37 °C). As for UGGUAGCAAUAUUACGUACU, the “self-splicing fitness (ln)” value (37 °C) is -0.977 ± 0.68. With GGGUAGCAAUAUUACGCGGC, the “self-splicing fitness (ln)” value (37 °C) is -1.68 ± 0.55. In the case of CGGCAGCAAUAUUACGCAAC, under “30 °C”, the “self-splicing fitness (ln)” value is -4.42 ± 0.59. Regarding CGGCAGCAAUAUUACGCUAC, the “self-splicing fitness (ln)” value runs as follows: (30 °C) -3.67 ± 0.74; (37 °C) -2.08 ± 0.79. As to CCAUAGCAAUAUUACGGCCC, under “37 °C”, the “self-splicing fitness (ln)” value was -1.94 ± 0.57. The same measure, in the same setting: the value for AGUGAGCAAUAUUACGGAAC was -2.94 ± 0.54.
